Our source for the binding values is article PMC12611763.

Chains of the proteins cited; added tags and fusions are not shown. Residues count along the entry.
UniProt Q9CZ52, residues 31-562: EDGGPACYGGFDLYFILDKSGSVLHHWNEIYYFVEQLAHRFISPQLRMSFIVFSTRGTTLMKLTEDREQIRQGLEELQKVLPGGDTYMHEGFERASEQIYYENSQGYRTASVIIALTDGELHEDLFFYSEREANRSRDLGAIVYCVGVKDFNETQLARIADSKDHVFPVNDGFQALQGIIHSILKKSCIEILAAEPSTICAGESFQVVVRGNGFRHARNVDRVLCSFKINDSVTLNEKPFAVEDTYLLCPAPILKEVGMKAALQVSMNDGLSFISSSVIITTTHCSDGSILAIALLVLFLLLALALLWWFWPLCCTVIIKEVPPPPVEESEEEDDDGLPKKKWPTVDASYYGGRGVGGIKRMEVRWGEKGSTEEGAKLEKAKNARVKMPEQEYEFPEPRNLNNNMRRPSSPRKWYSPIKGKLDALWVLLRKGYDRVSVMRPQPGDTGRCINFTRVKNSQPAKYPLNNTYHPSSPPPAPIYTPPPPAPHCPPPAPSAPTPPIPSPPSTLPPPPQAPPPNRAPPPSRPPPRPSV

These are yes or no findings as the source states them, for the method shown. In cells and extracts the contact can be indirect. Some results given as binding are weak or reduced against the parent protein; the word gives no strength.

The target of this assay is T1, TGFβ receptor 1 (TGFBR1) (mouse (endogenous in primary cardiac fibroblasts)) (UniProt Q64729).
T1 sequence: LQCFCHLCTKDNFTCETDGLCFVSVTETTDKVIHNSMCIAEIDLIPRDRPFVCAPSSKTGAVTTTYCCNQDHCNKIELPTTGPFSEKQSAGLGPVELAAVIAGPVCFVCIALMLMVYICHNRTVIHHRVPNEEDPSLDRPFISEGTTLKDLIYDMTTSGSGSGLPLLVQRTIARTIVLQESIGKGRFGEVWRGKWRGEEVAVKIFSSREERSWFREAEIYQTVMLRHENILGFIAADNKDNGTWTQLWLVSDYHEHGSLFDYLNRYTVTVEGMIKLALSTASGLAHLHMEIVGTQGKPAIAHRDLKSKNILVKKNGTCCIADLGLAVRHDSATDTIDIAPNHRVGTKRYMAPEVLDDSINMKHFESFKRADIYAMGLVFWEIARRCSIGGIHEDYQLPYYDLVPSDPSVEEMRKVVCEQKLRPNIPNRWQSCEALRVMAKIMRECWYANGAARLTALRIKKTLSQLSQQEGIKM
The assay is described as follows: co-IP; endogenous proteins in cardiac fibroblast lysate (25 mM Tris pH 7.5, 75 mM NaCl, 0.5% Triton X-100, 10% glycerol); 1 mg protein, 1 ug antibody overnight, Dynabeads Protein G, 5 washes; immunoblot; non-specific IgG as control; both directions. On the technique in general: Immunoblotting shows a protein as a band on a membrane.

Regarding “ANTXR1 (anthrax toxin receptor 1) (from UniProt Q9CZ52 31-562)”, the binding result is on record as “binds”.
